Our source for the binding values is paper PMC5723018.

Amino acid sequences for entries named in this document (tags omitted).
UniProt Q04206: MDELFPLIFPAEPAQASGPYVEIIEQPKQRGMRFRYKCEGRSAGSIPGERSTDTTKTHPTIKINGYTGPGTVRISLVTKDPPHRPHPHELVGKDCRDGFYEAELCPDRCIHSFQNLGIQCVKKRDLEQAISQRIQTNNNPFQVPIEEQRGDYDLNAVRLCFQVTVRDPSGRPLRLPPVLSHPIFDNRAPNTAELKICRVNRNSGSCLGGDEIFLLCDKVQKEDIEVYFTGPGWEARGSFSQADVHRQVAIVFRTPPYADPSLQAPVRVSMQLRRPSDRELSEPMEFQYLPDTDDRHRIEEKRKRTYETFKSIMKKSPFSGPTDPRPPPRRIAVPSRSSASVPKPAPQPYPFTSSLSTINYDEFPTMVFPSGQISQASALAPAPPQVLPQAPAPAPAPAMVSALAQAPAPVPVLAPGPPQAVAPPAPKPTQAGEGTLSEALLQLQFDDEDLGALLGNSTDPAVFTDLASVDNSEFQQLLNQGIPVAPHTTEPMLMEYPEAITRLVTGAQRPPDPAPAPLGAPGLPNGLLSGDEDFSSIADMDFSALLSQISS

Assay [1] has as its target T1, FK506 binding protein 11 (human (endogenous in EA.hy926)) (UniProt Q9NYL4).
T1 sequence: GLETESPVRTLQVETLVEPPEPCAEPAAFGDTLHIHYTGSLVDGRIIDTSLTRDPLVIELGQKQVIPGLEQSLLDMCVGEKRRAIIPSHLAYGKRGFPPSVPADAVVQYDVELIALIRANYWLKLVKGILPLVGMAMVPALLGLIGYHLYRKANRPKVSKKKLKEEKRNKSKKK
Kind of assay: co-IP; endogenous proteins in whole cell lysates of EA.hy926 cells, control or treated with 1.0 x 10^-6 mol/L Ang II; 3 ug specific antibody, 2 h at 4°C, protein A/G agarose beads, washed with PBS; IP of FKBP11 and immunoblot of p-p65, and vice versa. (In general: A western blot detects proteins with antibodies after separation by electrophoresis.)

The target of assay [2] is NF-kB p65 subunit, phosphorylated (human (endogenous in EA.hy926)) (UniProt Q04206). Described as above.

These are yes or no findings as the source states them, for the method shown. Binding seen in cells or lysates may run through a third protein. Some binding calls cover weakened binding; strength is not graded here.

Consider “NF-kB p65 subunit, phosphorylated (from UniProt Q04206 1-551)”, for which the binding result in assay [1] is “binds”.

B1: FK506 binding protein 11 (protein, UniProt Q9NYL4 28-201)
chain: GLETESPVRTLQVETLVEPPEPCAEPAAFGDTLHIHYTGSLVDGRIIDTSLTRDPLVIELGQKQVIPGLEQSLLDMCVGEKRRAIIPSHLAYGKRGFPPSVPADAVVQYDVELIALIRANYWLKLVKGILPLVGMAMVPALLGLIGYHLYRKANRPKVSKKKLKEEKRNKSKKK
Turning to B1, the binding result in assay [2] was “binds”.
